Results are given in words; binding and its absence hold for the method and conditions named. In cells and extracts the contact can be indirect. A yes stands for co-enrichment or nearness to the bait. Other partners may have been found.
Target: MpkB (MAPK of the pheromone module) (Aspergillus nidulans) (UniProt C8V7D1)
Assay: affinity purification with mass spectrometry; Tandem Affinity Purification of TAP-tagged bait expressed under its native promoter in A. nidulans, vegetative cultures grown for 24 hours, LC-MS of co-purified proteins; 2 biological replicates; wild type background and hamE deletion background

Protein sequences, listed by entry. Tags and fused reporters are not part of them. Lines headed by an entry give the natural chain unless they say otherwise; changes in a name come on top.
UniProt C8V7D1: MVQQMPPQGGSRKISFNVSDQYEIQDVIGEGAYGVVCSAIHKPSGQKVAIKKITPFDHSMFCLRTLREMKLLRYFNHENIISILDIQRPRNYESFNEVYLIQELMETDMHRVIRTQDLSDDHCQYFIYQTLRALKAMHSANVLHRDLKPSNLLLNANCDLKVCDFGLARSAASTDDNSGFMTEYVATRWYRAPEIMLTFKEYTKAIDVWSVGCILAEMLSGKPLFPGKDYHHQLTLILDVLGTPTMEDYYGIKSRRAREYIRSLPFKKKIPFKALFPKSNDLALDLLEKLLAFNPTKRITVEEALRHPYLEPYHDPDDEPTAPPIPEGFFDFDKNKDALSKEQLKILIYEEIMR

binding: binds
B1: SteA transcription factor (protein, UniProt O74252 1-692)
chain: MYSQHGAPMAPPQKPETFMLSNEAQQSLPHDAQVALQQVDNLKYFLLSAPVDWQPDQLIRRFLLPTGDYISCVLWSNLFHISGTDIVRCLAFRFQAFGRPVKNSKKFEEGIFSDLRNLKAGTDATLEEPKSPFLDFLYKNNCIRTQKKQKVFYWYSVPHDRLFLDALERDLKREKMGQEATTVAVSEPALSFEFDSSQSLYEQLTKAQQANSSSFAAHASTTYGQSASPVVRTVDAMPPPQMAPQMAPPSIPLLTDESANSQMYTSIPMPNPIPQNLIKREADYGAIQYDRNGMPIARIHQRHSSMPTFVEYSPAPSFVSSQYEDYSNRGLSFEPVTPPQHSSHIGPEPAYIANEDTGLYTAIPEMSTGSGFNPMMHLPPSNLASAHFPTPARTFHSNVYSVLEGSPTYKQRRRRSSIPPGAANPVTTGTHSPAPALSYAAHKPSDLRRSVSSSVAPGDTDDSRHESLHRSVNSTYTATLPQKNLMHEMSRNGTPLSSVGEHREQSSIPLTQAEDLPALPANGTVESGAPNGVGHKSDRYATGPVRRARSATMMELGPYPQKSHSCPIPSCGRLFKRLEHLKRHVRTHTQERPYPCPYCNKAFSRSDNLAQHRRIHEAQQDGQPLVHEDDLENDDNESVSHDEDESPSESVHPAVPGVHGMTSMPSSVALQSTMGSMMGSHMIAPQLLQQQI
